Test results reported in PMC10894303.
No constants are given. Whether binding was seen depends on the method and setting. Binding seen in cells or lysates may run through a third protein. Binding can be weak; no strength is given.

By UniProt entry, the sequences of proteins in these tests, tags left out. Where a name states a change or a piece, a line headed by the entry shows the natural chain unless it says otherwise.
UniProt Q9UNA4: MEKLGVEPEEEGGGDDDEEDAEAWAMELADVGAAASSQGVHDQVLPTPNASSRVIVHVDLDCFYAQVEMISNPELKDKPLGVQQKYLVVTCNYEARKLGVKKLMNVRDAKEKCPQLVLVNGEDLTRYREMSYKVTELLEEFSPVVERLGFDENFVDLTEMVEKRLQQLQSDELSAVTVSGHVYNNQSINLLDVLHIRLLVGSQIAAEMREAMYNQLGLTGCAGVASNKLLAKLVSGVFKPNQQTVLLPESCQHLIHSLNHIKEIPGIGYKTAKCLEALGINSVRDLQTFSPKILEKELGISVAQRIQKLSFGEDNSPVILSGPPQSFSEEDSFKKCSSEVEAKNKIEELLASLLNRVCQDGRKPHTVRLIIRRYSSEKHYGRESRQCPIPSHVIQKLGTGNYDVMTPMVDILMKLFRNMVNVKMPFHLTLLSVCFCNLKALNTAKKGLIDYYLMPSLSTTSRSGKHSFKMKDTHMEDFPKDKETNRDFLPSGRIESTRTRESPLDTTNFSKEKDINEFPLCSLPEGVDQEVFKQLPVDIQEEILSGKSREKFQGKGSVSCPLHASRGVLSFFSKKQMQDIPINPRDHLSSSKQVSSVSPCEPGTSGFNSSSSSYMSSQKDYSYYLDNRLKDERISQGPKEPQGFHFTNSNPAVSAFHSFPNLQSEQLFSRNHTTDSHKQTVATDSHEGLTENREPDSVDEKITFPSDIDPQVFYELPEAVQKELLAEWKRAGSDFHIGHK
UniProt Q16665: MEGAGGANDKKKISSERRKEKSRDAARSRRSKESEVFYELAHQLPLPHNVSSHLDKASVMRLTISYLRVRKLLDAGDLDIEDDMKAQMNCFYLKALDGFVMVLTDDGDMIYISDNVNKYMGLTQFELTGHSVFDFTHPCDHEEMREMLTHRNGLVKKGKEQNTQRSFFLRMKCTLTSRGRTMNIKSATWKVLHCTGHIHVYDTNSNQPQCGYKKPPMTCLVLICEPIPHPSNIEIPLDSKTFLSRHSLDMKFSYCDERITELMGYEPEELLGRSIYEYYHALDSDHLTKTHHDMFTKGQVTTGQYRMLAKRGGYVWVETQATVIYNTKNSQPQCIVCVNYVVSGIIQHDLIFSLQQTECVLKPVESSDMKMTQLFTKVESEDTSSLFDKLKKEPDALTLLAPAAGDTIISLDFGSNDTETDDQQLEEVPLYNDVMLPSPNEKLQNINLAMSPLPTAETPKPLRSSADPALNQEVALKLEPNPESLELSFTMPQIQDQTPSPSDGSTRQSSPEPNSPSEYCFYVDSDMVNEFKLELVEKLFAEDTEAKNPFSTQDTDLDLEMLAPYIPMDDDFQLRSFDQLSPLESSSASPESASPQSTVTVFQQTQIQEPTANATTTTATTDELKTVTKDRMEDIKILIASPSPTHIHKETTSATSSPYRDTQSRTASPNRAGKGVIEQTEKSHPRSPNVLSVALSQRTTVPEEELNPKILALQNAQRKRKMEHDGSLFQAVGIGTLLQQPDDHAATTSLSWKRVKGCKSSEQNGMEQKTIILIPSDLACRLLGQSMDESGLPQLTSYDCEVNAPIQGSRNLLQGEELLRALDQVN
UniProt Q93009: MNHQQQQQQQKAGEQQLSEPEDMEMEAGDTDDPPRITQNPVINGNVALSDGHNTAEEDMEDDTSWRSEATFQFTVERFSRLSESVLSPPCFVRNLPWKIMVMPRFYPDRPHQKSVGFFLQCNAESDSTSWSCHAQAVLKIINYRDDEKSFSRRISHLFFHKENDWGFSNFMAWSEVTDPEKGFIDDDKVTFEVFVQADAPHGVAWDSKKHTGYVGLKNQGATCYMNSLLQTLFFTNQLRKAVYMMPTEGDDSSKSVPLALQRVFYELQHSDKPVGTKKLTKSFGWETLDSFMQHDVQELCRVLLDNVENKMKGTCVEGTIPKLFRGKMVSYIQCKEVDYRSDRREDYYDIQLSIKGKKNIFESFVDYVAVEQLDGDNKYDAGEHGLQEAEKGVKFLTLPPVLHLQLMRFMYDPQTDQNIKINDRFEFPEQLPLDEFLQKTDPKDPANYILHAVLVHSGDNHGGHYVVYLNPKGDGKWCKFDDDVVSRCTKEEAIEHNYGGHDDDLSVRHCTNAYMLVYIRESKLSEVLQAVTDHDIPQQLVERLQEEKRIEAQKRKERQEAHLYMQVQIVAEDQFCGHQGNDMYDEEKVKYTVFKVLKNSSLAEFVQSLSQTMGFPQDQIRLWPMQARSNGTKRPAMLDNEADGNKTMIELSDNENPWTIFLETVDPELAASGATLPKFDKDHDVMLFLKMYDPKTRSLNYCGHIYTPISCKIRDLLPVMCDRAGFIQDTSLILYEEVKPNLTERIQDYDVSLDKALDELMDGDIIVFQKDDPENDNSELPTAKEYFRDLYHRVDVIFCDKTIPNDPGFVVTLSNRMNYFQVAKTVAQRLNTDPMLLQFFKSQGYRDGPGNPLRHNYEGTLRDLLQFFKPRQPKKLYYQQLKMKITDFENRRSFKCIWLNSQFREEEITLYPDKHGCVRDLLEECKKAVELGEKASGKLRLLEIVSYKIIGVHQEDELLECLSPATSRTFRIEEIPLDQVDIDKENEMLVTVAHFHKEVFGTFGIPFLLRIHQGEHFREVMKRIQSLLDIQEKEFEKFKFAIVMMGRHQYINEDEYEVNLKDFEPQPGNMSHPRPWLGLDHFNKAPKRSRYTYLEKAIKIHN

Target: Flag-Pol ι-Δ3 (UniProt Q9UNA4)
Assay: co-IP; HEK293T cells co-transfected with Flag-Pol ι (WT or deletion mutants), Myc-USP7 and HA-HIF-1α; M-PER lysis buffer; anti-Flag, anti-Myc and anti-HA agarose beads; western blot

Substance | binding
HA-HIF-1α (from UniProt Q16665 1-826) | binds
Myc-USP7 (from UniProt Q93009 1-1102) (enzyme) | binds
